Results reported in paper PMC11316025.

Amino acid sequences for entries named in this document (tags omitted). A change or cut given only in a name is not applied to a line headed by its entry.
UniProt P10301: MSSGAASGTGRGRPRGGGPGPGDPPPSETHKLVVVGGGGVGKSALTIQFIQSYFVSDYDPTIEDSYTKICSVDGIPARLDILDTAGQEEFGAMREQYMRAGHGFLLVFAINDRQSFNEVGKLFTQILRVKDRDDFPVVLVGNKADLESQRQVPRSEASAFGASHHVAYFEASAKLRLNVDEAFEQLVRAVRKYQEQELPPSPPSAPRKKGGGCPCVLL

Key:
[1] = target: GST-tagged RASSF5 RA domain (human) (UniProt Q8WWW0); experiment: pull-down; validation pull-downs (Fig. EV1C, Fig. 2A): recombinant purified GST-RASSF5 RA or GST alone with HEK 293T lysates expressing VENUS-tagged GTPases (activated, wild-type or dominant-negative variants); Western blot; only the target purified
[2] = target: T1, full-length FLAG-tagged RASSF5 (human) (UniProt Q8WWW0); experiment: co-IP; HEK 293T co-transfected with FLAG-tagged RASSF and VENUS-tagged GTPase; lysis in 20 mM Tris-HCl pH 7.5, 150 mM NaCl, 5 mM MgCl2, 10% glycerol, 1% Triton X-100, 1 mM DTT; anti-FLAG on Protein G Sepharose 1 h, three washes; blot with anti-GFP
T1 sequence: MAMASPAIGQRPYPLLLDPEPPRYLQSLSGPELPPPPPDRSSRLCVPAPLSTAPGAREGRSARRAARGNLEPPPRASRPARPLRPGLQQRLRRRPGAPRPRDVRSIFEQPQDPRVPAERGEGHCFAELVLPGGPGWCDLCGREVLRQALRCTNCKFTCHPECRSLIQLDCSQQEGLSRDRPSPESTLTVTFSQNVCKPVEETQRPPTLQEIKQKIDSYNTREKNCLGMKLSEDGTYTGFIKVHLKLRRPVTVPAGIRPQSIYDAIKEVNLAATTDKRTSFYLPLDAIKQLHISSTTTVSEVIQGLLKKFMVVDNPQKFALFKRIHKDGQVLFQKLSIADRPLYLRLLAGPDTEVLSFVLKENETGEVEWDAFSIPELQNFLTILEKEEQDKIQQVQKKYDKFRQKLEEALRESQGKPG

[3] = target: GST-tagged RASSF5 RA domain (human) (UniProt Q8WWW0); experiment: pull-down; systematic screen: 2 µM purified GST-tagged RBD/RA domain (or GST alone) and glutathione beads incubated 30 min with HEK 293T lysate expressing a VENUS-tagged GTPase; Bio-Spin columns on a vacuum manifold, washed three times with lysis buffer (20 mM Tris-HCl pH 7.5, 150 mM NaCl, 5 mM MgCl2, 10% glycerol, 1% Triton X-100, 1% NP-40, 1 mM DTT); Western blot; GST-alone signal subtracted; heatmap from two replicates; only the target purified

Measured: binding

VENUS-RRAS-G30V (from UniProt P10301)
binds: [1] | [2] | [3]

Results are given in words; binding and its absence hold for the method and conditions named. Binding seen in cells or lysates may run through a third protein. Binding calls can cover weak binding; strength is not graded here. For part of these data: Where a sequence is shown, tags or fusion partners need not be part of it.
